No constants are given. Whether binding was seen depends on the method and setting.
Biological target: His6-StXPB (Sulfolobus tokodaii XPB, XPBII) (Sulfolobus tokodaii) (UniProt Q970I2)
Test: SEC; S200 size-exclusion chromatography of the proteins alone and mixed; calibrated with Conalbumin (75 kDa), Ovalbumin (44 kDa) and Lactalbumin (14 kDa); both purified

Protein sequences, listed by entry. Tags and fused reporters are not part of them.
UniProt Q970I2: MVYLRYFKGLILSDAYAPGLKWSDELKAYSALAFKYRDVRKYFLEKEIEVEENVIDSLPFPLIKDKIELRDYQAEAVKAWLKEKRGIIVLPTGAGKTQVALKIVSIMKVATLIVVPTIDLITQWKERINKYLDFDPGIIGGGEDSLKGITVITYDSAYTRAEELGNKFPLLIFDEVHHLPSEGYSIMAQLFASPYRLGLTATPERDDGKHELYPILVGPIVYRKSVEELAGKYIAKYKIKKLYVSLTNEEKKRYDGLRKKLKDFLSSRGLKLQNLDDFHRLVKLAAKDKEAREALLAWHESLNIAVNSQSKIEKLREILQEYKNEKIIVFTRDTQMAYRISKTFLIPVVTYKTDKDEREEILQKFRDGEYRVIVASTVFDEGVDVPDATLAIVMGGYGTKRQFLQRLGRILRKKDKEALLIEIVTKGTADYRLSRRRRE

binding: no binding
Substance: His6-StXPB (Sulfolobus tokodaii XPB, XPBII) (from UniProt Q970I2 1-439) (enzyme)

Source: publication PMC7293015 (Nucleic Acids Research, 2020)
